PubChem BioAssay AID504774, Drosophila RNAi Screening Center | 2011

- Assay: 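Genes required for cells to withstand methyl methanesulphonate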 (primary screen)
- System: Drosophila Kc167 cells
- Reagents: long dsRNA against Drosophila genes, about 0.25 µg dsRNA per well
- Timing: about 6 days: 3 days knock-down, then 3 days with or without MMS
- Challenge: methyl methanesulphonate 0.004% (w/v) for 3 days after knock-down
- Measured: 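ATP-dependent luminescence as a measure of live cells in MMS-exposed wells, quantile normalised within each plate, with replicate values also given as a mean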
- Direction: mean viability with MMS: higher = more surviving cells after MMS
In all, the deposit lists about 23,000 reagents; this is an unselected part of those with a known target gene and a result. 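Values are quantile-normalised luminescence on an arbitrary scale; higher means more cells surviving MMS.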 Reagents against one gene are numbered here. Names joined by + are all predicted targets of the reagent. Not all columns of the deposit are shown.

mean viability with MMS, by target and reagent
CG5382: #1 3.63e6
Cyp312a1: #1 3.57e6
CG13096: #1 3.42e6
scw: #1 3.42e6; #2 3.55e6
CG32115: #1 3.64e6
Tengl2: #1 3.53e6
CG5805: #1 3.71e6
CR33328 (retired record): #1 3.57e6
vg: #1 3.81e6; #2 3.41e6
Pyroxd1: #1 3.55e6
Sry-alpha: #1 3.51e6
CG14442: #1 3.47e6
CG42471: #1 3.69e6
crb: #1 3.31e6
Mes2: #1 3.04e6; #2 3.34e6
mthl10: #1 3.67e6; #2 3.58e6
CG8003: #1 3.56e6

Looked up above.
Mes2 #2, mean viability with MMS → 3.34e6
CR33328 (retired record), mean viability with MMS → 3.57e6
CG5805, mean viability with MMS = 3.71e6
CG42471, mean viability with MMS = 3.69e6
mthl10 #1, mean viability with MMS: 3.67e6
CG13096, mean viability with MMS → 3.42e6

The listing continues:
mean viability with MMS, by target and reagent
Lipt1: #1 3.58e6; #2 3.47e6
Chrac-16: #1 3.30e6
Gycalpha99B: #1 3.53e6
CG42233: #1 3.66e6; #2 3.57e6
CG32388: #1 3.77e6
CG13185: #1 3.50e6
stnB + stnA: #1 1.66e6; #2 3.57e6; #3 3.47e6
Vmat + CG13330: #1 3.81e6
CG11257: #1 3.49e6
Lkr: #1 3.63e6
Zaf1: #1 3.76e6
CG9631: #1 3.68e6
Regnase-1: #1 3.53e6
tilB: #1 3.52e6
CG6324: #1 3.60e6
CG4372: #1 3.62e6
CG7907: #1 3.73e6
CG9815: #1 3.67e6
mib1: #1 3.63e6
spen: #1 3.41e6
CG13744: #1 3.55e6
